These are yes or no findings as the source states them, for the method shown. Blank lines part the entries; values can stand above or below the molecule they belong to.
Legend:
[1] = biological target: purified yeast AAC3 (yeast (Saccharomyces cerevisiae)) (UniProt P18238); assay: SEC; Superdex 200 XK16/60, 10 mM Tris pH 7.4, 150 mM NaCl, 0-0.4% 12M with or without 0.02% Coomassie Blue G-250; 417 ug purified AAC3 loaded; both purified
[2] = biological target: purified yeast AAC3 (yeast (Saccharomyces cerevisiae)) (UniProt P18238); assay: native gel or EMSA; blue native PAGE, 5-13% polyacrylamide gels, purified AAC3 (2-4 ug per lane) in alkyl maltoside detergents (10-13M), Western detection; both purified
[3] = biological target: yeast mitochondrial ADP/ATP carrier AAC3 (in solubilised mitochondrial membranes) (yeast (Saccharomyces cerevisiae)) (UniProt P18238); assay: native gel or EMSA; blue native PAGE, 6-18% polyacrylamide gels, CATR-treated yeast mitochondrial membranes (20 ug protein) solubilised in 1% digitonin, Western detection; calibrated with the covalently linked dimer diAAC3
[4] = biological target: yeast mitochondrial ADP/ATP carrier AAC3 (in solubilised mitochondrial membranes) (yeast (Saccharomyces cerevisiae)) (UniProt P18238); assay: native gel or EMSA; blue native PAGE, 6-18% polyacrylamide gels, mitochondrial membranes (20 ug protein, 10-fold lower load) solubilised in 1% alkyl maltoside (12M; 10-13M for AAC3), AAC samples CATR-treated, Western detection; calibrated with the covalently linked dimer diAAC3
[5] = biological target: native uncoupling protein-1 (UCP1) from lamb brown adipose tissue mitochondria (sheep (endogenous in lamb brown adipose tissue)) (UniProt W5PSH7); assay: as above

Protein sequences, listed by entry. Tags and fused reporters are not part of them.
UniProt P18238: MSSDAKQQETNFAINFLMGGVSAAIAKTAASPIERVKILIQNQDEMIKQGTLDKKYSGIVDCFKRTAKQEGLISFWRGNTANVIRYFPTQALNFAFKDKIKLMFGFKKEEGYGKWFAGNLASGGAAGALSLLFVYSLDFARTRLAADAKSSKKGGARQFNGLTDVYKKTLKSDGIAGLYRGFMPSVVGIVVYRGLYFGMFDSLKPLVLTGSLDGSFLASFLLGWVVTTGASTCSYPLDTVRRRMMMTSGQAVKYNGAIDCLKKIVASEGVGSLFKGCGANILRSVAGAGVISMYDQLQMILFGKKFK

binding [1]: no binding
binding [2]: no binding
Molecule: purified yeast AAC3 (from UniProt P18238 1-307)

binding [3]: no binding
binding [4]: no binding
Molecule: yeast mitochondrial ADP/ATP carrier AAC3 (in solubilised mitochondrial membranes) (from UniProt P18238 1-307)

binding [5]: no binding
B1: native uncoupling protein-1 (UCP1) from lamb brown adipose tissue mitochondria (protein, UniProt W5PSH7 1-305)
chain: MVGHAATDVPPTMAVKIFSAGVAACVADIITFPLDTAKVRLQIQGECLTSSAFRYKGVLGTIITLAKTEGPVKLYSGLPAGLQRQISFASLRIGLYDTVQEFFTTGKEASLGSKISAGLTTGGVAVFIGQPTEVVKVRLQAQSHLHGPKPRYTGTYNAYRIIATTEGLTGLWKGTTPNLTRNVIINCTELVTYDLMKEALVKNKLLADDVPCHFVSAVVAGFCTTVLSSPVDVVKTRFVNSSPGQYTSVPNCAMMMLTREGPSAFFKGFVPSFLRLGSWNIIMFVCFEQLKRELMKSRQAMDCAT
